Source: patent publication US20260166068A1, “COMPOSITION FOR PROMOTING DEVELOPMENT OF BRAIN FUNCTIONS IN CHILDREN” (Meiji Co., Ltd., priority 2022, published 2026)

Test: LC-MS/MS determination of NAD-related substances in 1-month breast milk
Design: species or system human
Details: for Concentration in 1-month breast milk, first quartile / Concentration in 1-month breast milk, maximum value / Concentration in 1-month breast milk, minimum value / Concentration in 1-month breast milk, second quartile (median) / Concentration in 1-month breast milk, third quartile: 150 samples, FIG. 3

For `NC(=O)c1ccc[n+]([C@@H]2O[C@H](CO)[C@@H](O)[C@H]2O)c1` [NR, nicotinamide riboside], the “Concentration in 1-month breast milk, first quartile” value (“Concentration … first quartile” below) was 0.050 µg/mL, the “Concentration in 1-month breast milk, maximum value” (from here on “Concentration … maximum value”) was 1.532 µg/mL and the “Concentration in 1-month breast milk, minimum value” (from here on “Concentration … minimum value”) was 0.006 µg/mL. The “Concentration in 1-month breast milk, second quartile (median)” value (from here on “Concentration … (median)”) was 0.119 µg/mL and the “Concentration in 1-month breast milk, third quartile” value (“Concentration … third quartile” for short) was 0.422 µg/mL.
For `O=C(O)c1cccnc1` [NA, nicotinic acid], the “Concentration … first quartile” value was 0.000 µg/mL, the “Concentration … maximum value” was 0.002 µg/mL and the “Concentration … minimum value” was 0.000 µg/mL. The “Concentration … (median)” value was 0.000 µg/mL and the “Concentration … third quartile” value was 0.002 µg/mL.
With `NC(=O)c1ccc[n+]([C@@H]2O[C@H](COP(=O)([O-])O)[C@@H](O)[C@H]2O)c1` [NMN, nicotinamide mononucleotide] the “Mean NMN concentration in 1-month breast milk” value was 3.089 µg/mL, the “Concentration … first quartile” value was 2.352 µg/mL and the “Concentration … maximum value” was 8.043 µg/mL. The “Concentration … minimum value” was 0.058 µg/mL, the “Concentration … (median)” value was 3.075 µg/mL and the “Concentration … third quartile” value was 3.758 µg/mL.
